# Measured values as given in patent US20230399408A1 (AB THERAPEUTICS, published 2023).
# Amino acid sequences for entries named in this document (tags omitted). Residues count along the entry.
# UniProt P08581, residues 25-932: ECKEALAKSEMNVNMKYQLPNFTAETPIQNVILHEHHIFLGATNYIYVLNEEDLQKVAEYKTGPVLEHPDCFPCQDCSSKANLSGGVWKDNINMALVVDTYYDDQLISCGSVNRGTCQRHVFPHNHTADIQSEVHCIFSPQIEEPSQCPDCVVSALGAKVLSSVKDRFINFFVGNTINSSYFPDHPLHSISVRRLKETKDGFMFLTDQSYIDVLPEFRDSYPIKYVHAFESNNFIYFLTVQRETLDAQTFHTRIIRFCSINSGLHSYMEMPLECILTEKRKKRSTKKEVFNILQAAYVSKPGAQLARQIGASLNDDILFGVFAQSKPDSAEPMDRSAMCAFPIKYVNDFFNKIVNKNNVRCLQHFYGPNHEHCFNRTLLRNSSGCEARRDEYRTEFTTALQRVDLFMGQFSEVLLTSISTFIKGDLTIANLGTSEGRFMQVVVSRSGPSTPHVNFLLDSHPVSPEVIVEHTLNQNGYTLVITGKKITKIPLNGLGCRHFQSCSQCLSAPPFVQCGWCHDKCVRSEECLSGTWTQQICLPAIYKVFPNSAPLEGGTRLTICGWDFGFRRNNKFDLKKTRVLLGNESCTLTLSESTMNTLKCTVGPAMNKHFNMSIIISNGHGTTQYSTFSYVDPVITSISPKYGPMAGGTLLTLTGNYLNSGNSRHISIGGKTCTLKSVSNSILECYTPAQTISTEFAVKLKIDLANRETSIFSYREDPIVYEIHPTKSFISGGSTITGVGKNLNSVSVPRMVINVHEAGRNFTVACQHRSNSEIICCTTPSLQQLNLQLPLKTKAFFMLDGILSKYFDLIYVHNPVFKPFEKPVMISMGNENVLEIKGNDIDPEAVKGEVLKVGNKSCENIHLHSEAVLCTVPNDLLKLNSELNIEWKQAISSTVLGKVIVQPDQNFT
# These are yes or no findings as the source states them, for the method shown. Some binding calls cover weakened binding; strength is not graded here. For some of these results: Where a sequence is shown, tags or fusion partners need not be part of it.
# Tests used:
# c-MET-His tag protein [1] = biological target: T1, c-MET-His tag protein (human, UniProt P08581 25-932); assay: BLI epitope binning, cMET-His captured on HIS probes
# T1 construct: also called cMET-HIS tagged; not shown: His tag
# c-MET-His tag protein [2] = biological target: T1, c-MET-His tag protein; assay: BLI (Probelife Gator), cMET-His on HIS probe, first antibody at 15 ug/ml
# c-MET-His tag protein [3] = biological target: T1, c-MET-His tag protein; assay: BLI (Probelife Gator), cMET-His on HIS probe after 1A12-cMET-VHH-Fc, second antibody at 5 ug/ml
# [4] = biological target: monkey cMET (monkey (Cynomolgus sp.)); assay: binding ELISA, plate coated with monkey cMET at 1 ug/mL, clone at 10 ug/mL, biotinylated anti-c-Myc 9E-10 and streptavidin detection
binding (c-MET-His tag protein [1]),binding (c-MET-His tag protein [2]),binding (c-MET-His tag protein [3]),binding [4],Binder
binds,binds,binds,–,"cMET-1H1 VHH-Fc (Fc fusion, not shown: a dimerising Fc or GST) QVQLVESGGGLVQPGGSLKLSCAVSASLFSINTMGWFRQGPGKEREFVAAISWSGGNYYATFARGRFTISSEDAKDTVYLQMDNLKPEDTAVYFCGADRWGTGSMNAPDYDYWGRGTLVTVSS"
–,–,–,binds,"1A12 (VHH, it is not the VHH-Fc fusion m11; also called cMET-1A12; clone 1A12) VHH: QVQLVESGGGLVQPGGSLRLSCAASGFTFNSYWMYWVRLAPGKGIEWVSATDTRGQNTYYTDSVKGRFTISRDNAKNMVSLQMNNLKSEDTAVYYCALGNRWGTFPNRGPGTLVTVSS"
